Test results published in doi:10.1101/2025.07.24.666629.
These are yes or no findings as the source states them, for the method shown. Binding seen in cells or lysates may run through a third protein. Some entries that bind do so weakly or less than the wild type.

Sequences of proteins named here, by UniProt entry; tags and fusion partners are left off. Residues count along the entry.
UniProt P42858: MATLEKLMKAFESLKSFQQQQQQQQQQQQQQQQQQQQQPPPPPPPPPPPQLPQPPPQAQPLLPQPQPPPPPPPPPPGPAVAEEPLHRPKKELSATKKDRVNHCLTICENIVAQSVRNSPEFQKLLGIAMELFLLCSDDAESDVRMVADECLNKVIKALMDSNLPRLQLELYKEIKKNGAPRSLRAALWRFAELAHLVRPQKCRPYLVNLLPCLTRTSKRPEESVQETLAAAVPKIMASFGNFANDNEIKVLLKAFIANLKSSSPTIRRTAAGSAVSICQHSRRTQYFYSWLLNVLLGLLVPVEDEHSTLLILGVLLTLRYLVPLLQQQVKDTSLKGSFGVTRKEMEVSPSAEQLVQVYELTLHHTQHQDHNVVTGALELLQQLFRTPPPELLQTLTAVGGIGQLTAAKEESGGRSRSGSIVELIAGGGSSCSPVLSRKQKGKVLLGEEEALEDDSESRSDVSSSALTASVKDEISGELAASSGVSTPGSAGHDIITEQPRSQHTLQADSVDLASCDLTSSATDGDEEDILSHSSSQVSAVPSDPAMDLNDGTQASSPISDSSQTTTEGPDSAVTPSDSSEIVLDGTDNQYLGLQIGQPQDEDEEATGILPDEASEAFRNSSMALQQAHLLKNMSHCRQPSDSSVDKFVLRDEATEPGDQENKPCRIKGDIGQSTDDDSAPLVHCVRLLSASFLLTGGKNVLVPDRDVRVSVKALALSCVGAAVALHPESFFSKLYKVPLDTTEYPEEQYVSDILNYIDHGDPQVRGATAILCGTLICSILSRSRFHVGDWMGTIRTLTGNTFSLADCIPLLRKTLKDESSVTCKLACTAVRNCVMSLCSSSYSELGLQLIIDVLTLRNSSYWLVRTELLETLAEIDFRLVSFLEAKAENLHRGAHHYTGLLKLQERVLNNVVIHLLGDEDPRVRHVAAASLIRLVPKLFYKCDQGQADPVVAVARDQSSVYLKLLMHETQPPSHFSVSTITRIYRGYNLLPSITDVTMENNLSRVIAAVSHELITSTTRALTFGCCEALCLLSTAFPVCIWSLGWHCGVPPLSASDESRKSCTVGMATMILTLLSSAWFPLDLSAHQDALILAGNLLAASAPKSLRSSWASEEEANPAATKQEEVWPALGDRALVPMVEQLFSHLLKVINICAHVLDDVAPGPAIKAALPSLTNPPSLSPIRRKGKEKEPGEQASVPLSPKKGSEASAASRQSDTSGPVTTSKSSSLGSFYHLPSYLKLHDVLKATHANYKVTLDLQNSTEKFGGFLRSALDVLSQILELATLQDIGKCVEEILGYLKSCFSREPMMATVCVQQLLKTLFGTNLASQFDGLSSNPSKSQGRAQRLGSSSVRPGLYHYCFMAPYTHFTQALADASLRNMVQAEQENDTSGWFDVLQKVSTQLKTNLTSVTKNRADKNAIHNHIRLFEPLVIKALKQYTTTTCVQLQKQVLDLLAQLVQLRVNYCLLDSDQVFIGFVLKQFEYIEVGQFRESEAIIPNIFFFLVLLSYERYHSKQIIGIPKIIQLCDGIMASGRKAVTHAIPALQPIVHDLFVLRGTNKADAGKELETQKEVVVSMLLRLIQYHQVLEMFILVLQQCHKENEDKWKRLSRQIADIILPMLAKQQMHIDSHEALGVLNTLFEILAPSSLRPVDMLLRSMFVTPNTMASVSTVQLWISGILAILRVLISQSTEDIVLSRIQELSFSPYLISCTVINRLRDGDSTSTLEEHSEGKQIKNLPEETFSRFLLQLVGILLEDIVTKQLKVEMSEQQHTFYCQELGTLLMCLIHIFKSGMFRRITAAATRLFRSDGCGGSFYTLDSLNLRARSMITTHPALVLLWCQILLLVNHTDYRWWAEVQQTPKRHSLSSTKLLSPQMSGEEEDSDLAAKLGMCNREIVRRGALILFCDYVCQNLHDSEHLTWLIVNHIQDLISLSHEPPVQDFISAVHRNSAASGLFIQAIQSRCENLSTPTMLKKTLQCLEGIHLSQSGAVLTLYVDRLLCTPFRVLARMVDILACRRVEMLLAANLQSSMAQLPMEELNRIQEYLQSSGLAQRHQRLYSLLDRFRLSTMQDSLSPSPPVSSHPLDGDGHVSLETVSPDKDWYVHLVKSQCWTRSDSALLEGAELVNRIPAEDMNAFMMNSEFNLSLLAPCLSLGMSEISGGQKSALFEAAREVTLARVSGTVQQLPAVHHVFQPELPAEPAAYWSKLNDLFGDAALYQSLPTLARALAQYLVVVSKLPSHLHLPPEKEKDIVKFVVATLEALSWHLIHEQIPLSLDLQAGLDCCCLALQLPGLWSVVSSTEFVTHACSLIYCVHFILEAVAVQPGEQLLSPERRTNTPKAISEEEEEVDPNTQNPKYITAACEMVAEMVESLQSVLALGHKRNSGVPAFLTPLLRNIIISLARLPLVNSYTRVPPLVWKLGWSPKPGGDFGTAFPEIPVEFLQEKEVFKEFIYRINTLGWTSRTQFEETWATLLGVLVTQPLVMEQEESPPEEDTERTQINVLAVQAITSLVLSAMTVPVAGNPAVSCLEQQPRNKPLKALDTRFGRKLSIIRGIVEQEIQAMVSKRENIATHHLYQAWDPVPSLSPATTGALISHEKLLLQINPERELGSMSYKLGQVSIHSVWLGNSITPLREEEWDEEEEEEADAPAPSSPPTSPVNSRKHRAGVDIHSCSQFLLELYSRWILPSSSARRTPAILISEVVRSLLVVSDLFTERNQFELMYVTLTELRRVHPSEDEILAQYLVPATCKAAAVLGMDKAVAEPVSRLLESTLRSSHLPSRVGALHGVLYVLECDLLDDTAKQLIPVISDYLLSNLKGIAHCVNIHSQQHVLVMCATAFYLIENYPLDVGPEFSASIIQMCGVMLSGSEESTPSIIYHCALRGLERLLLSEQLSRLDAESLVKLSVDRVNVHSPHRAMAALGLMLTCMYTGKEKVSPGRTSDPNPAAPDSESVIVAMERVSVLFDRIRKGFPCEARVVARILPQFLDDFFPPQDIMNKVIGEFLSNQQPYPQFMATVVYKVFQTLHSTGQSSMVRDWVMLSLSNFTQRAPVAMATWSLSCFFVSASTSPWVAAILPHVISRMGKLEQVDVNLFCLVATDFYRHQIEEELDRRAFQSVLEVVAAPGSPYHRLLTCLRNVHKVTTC
UniProt O00411, residues 42-1230: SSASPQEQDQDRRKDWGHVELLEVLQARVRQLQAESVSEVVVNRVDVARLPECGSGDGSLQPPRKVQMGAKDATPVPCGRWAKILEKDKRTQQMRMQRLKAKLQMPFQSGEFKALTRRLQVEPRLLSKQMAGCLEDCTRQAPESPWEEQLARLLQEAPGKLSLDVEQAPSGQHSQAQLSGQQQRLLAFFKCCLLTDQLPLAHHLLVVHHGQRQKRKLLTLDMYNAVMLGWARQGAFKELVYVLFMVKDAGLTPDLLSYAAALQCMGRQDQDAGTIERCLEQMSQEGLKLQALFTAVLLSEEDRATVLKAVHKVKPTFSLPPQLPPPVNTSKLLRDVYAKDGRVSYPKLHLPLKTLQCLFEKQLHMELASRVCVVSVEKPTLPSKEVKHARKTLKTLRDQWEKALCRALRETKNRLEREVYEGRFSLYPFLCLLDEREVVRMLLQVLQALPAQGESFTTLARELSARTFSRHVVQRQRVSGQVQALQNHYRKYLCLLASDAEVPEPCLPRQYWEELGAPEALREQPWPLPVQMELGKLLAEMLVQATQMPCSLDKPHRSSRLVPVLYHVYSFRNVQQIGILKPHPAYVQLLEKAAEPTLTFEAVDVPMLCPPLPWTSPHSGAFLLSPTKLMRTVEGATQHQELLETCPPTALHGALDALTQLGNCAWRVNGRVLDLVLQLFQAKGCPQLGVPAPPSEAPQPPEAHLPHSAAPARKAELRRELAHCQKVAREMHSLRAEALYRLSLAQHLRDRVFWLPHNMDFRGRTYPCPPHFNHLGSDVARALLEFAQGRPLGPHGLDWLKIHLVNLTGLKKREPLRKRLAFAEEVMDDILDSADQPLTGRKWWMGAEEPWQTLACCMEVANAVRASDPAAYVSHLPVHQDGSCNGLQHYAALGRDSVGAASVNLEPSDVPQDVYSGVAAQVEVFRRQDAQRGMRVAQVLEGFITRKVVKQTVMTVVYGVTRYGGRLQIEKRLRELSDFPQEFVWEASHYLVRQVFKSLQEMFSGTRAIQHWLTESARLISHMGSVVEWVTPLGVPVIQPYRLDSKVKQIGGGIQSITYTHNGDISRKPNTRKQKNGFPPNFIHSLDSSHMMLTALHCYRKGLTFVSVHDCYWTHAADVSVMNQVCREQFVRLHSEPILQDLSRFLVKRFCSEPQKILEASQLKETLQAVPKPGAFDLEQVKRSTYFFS
UniProt Q9DCC8: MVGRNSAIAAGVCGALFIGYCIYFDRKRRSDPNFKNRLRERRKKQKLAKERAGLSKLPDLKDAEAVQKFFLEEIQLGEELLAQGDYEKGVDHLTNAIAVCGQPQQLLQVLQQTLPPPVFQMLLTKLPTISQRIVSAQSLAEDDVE
UniProt F8VPZ5: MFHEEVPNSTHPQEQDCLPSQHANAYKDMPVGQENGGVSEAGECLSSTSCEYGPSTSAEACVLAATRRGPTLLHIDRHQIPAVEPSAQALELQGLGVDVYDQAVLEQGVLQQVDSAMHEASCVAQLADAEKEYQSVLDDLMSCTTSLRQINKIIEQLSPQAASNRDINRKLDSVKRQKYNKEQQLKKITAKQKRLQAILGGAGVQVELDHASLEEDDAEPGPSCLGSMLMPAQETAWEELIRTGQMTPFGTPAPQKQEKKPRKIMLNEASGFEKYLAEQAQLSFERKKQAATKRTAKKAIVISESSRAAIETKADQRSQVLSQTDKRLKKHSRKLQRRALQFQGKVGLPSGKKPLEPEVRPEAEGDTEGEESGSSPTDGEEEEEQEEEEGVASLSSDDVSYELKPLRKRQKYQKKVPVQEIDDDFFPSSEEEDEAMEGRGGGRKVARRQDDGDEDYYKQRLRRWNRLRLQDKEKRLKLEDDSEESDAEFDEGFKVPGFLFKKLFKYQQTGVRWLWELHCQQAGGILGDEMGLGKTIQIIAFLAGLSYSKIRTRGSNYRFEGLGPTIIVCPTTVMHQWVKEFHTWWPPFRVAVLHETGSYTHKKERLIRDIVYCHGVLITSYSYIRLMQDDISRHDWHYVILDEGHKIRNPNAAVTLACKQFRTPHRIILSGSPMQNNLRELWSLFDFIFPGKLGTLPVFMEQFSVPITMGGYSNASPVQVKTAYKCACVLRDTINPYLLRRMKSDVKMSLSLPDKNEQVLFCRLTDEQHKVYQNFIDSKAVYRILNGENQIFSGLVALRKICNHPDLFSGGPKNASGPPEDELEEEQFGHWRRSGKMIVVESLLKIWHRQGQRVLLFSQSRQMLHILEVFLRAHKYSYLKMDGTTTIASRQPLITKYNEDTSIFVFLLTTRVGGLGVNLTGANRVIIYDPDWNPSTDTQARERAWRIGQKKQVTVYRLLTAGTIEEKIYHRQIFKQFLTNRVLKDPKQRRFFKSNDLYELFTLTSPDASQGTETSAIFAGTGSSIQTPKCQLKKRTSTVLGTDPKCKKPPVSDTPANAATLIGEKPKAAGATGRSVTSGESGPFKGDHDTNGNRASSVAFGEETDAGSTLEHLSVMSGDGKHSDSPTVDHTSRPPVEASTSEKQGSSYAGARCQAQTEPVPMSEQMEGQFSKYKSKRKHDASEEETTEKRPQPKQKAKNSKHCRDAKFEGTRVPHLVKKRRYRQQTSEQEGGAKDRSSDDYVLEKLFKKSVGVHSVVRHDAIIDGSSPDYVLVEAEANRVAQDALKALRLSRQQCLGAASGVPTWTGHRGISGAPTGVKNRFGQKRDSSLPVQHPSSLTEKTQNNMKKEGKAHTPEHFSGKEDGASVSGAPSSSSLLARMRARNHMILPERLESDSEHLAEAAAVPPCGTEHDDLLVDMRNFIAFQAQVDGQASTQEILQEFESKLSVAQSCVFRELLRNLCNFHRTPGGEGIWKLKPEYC

T1: TFAM, endogenous, mouse cortex (mouse (endogenous in C57BL/6 cortex)) (UniProt P40630)
T1 sequence: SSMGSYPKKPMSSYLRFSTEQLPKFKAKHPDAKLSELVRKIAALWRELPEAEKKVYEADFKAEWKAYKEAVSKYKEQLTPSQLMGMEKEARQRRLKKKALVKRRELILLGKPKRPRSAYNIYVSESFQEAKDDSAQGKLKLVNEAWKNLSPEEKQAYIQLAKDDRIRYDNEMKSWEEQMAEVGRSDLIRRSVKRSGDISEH

T2: mitochondrial transcription factor TFAM, endogenous (human (endogenous in SH-SY5Y)) (UniProt Q00059)
T2 sequence: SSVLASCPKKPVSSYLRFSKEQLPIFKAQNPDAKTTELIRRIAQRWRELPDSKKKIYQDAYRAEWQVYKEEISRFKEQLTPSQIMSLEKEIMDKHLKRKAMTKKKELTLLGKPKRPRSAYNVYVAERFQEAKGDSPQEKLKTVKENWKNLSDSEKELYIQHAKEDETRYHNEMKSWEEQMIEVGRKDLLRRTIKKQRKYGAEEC

B1: POLGA, endogenous, mouse cortex (protein, UniProt P54099 1-1218)
chain: MSRLLWKKVAGAKVASGPVPATARWVASSVLDPVPSDGRPPSQMPSSENGQLRLNPLLIQMLSRGLHEQIFGCGGEMPDEAAVQRSVEHLQKHGLWGQPATPLPDVELRLPRLFGGNLDQHFRLLAQKQSLPYLEAAASLLEAQLPPEPKSWAWAEGWTRYGPEGEAEPVAIPEERALVFDVEVCLAEGTCPTLAVAISPSAWYSWCSRRLVEERYSWTSQLSPADLIPLGGSTSASSSTKQDGQEQLVVGHNVSFDRAHIREQYLIQDSRMRFLDTMSMHMAISGLSSFQRSLWMGAKQGKHKNPAAHKARAEVPEESQWSSESSSWDWMDISSANNLADVHNLYVGGPPLEKEPRELFVKGSMRDIRENFQDLMQYCARDVWATFEVFQQQLPLFLERCPHPVTLAGMLEMGVSYLPVNQNWERYLTEAQNTYEELQREMKKSLMDLANDACQLLSGERYKEDPWLWDLEWDLQEFKQKKAKKVKKPASASKLPIEGAGPFGDPMDQEDPGPPSEEEELQRSVTAHNRLQQLRSTTDLLPKRPQHLPGHPGWYRQLCPRLDDPAWAPGPSLLSLQMRVTPKLMALTWDGFPLHYSDSHGWGYLVPGRRDNLTEPPVSPTVESAAVTCPYRAIESLYRKHCLEQGKQQLEPQEVDLAEEFLLTDNSAMWQTVEELGCLDVEAEAKMENSGLSQPLVLPAACAPKSSQPTYHHGNGPYNDVNIPGCWFFKLPHKDGNNYNVGSPFAKDFLPKMEDGTLQAGPGGASGPRALEINKMISFWRNAHKRISSQMVVWLPRSALPRVVTRHPAFDEEGHYGAILPQVVTAGTITRRAVEPTWLTASNARPDRVGSELKAMVQAPPGYVLVGADVDSQELWIAAVLGDAHFAGMHGCTAFGWMTLQGRKSRGTDLHSKTAATVGISREHAKIFNYGRIYGAGQSFAERLLMQFNHRLTRQEAAEKAQQMYAVTKGLRRYRLSADGEWLVKQLNLPVDRTEDGWVSLQDLRMIRREASRKSRWKKWEVAAERAWTGGTESEMFNKLESIAMSDTPRTPVLGCCISRALEPSVVQGEFITSRVNWVVQSSAVDYLHLMLVAMKWLFEEFAIDGRFCISIHDEVRYLVREEDRYRAALALQITNLLTRCMFAYKLGLNDLPQSVAFFSAVDIDQCLRKEVTMDCKTPSNPTGMERRYGIPQGEALDIYQIIELTKGSLEKRSQPGP
B2: TFAM, endogenous, mouse cortex (protein, UniProt P40630 43-243)
chain: T1 sequence
B3: mitochondrial transcription factor TFAM, endogenous (protein, UniProt Q00059 43-246)
chain: T2 sequence

Tests used:
[1] = target: T1, TFAM, endogenous, mouse cortex (mouse (endogenous in C57BL/6 cortex)); test: co-IP; endogenous HTT, TFAM, POLRMT or PNKP immunoprecipitated (MAB2170; ab176558; GTX105137; NBP1-87257) from mitochondrial extracts of wildtype C57BL/6 mouse cortex; mitochondria treated with trypsin, extracts treated with benzonase; western blot
[2] = target: mitochondrial RNA polymerase (POLRMT), endogenous, mouse cortex (mouse (endogenous in C57BL/6 cortex)) (UniProt Q8BKF1); test: as above
[3] = target: Huntingtin (HTT), endogenous, mouse cortex (mouse (endogenous in C57BL/6 cortex)) (UniProt P42859); test: as above
[4] = target: PNKP, endogenous, mouse cortex (mouse (endogenous in C57BL/6 cortex)) (UniProt Q9JLV6); test: as above
[5] = target: Huntingtin (wtHTT), endogenous, post-mortem human brain (human (endogenous in post-mortem brain)) (UniProt P42858); test: proximity ligation; PLA on post-mortem human brain sections with anti-POLRMT or anti-POLGA (rabbit) and anti-HTT (goat) Abs; mitochondria stained with anti-MT-Co1
[6] = target: Huntingtin (HTT), endogenous wild-type (human (endogenous in SH-SY5Y)) (UniProt P42858); test: co-IP; endogenous HTT immunoprecipitated with anti-HTT mouse monoclonal Ab (MAB2170) from mitochondrial extracts of SH-SY5Y cells; mitochondria treated with trypsin, extracts treated with benzonase; washes with TBS (150 mM KCl), 1 mM EDTA, 1% Triton X-100, 10% glycerol; western blot
[7] = target: mitochondrial RNA polymerase (POLRMT), endogenous (human (endogenous in SH-SY5Y)) (UniProt O00411); test: proximity ligation; Duolink PLA on fixed, permeabilised SH-SY5Y cells (control cells and cells overexpressing wtHTT-Q19), without and with glucose oxidase (300 ng/mL, 30 min); mitochondria stained with MitoTracker Red; signals increased after glucose oxidase (HTT-TFAM 3 to 4-fold)
[8] = target: Huntingtin (HTT), endogenous wild-type (human (endogenous in SH-SY5Y)) (UniProt P42858); test: as above
[9] = target: T2, mitochondrial transcription factor TFAM, endogenous (human (endogenous in SH-SY5Y)); test: as above
[10] = target: Huntingtin (HTT), endogenous wild-type (human (endogenous in SH-SY5Y)) (UniProt P42858); test: as above; remark: listed apart in the source

| Molecule | binding [1] | binding [2] | binding [3] | binding [4] | binding [6] | also measured |
| --- | --- | --- | --- | --- | --- | --- |
| PNKP, endogenous, mouse cortex (from UniProt Q9JLV6 1-522) | binds | binds | binds |  |  |  |
| Huntingtin (HTT), endogenous, mouse cortex (from UniProt P42859 1-3119) | binds | binds |  | binds |  |  |
| TOM20, endogenous, mouse cortex (from UniProt Q9DCC8 1-145) | no binding | no binding | no binding | no binding |  |  |
| mtDNA polymerase gamma (POLGA), endogenous, post-mortem human brain (from UniProt P54098 1-1239) |  |  |  |  |  | binding [5]: binds |
| mitochondrial RNA polymerase (POLRMT), endogenous, mouse cortex (from UniProt Q8BKF1 42-1207) | binds |  | binds | binds |  |  |
| TOM20 (an outer mitochondrial membrane protein), endogenous (from UniProt Q15388 1-145) |  |  |  |  | no binding |  |
| Cockayne syndrome protein B (CSB), endogenous (from UniProt Q03468 1-1493) |  |  |  |  | binds | binding [7]: binds |
| POLGA (catalytic subunit of mitochondria-specific DNA polymerase gamma), endogenous (from UniProt P54098 1-1239) |  |  |  |  | binds |  |
| Cockayne syndrome protein B (CSB), endogenous, mouse cortex (from UniProt F8VPZ5 1-1481) | binds | binds | binds | binds |  |  |
| mitochondrial RNA polymerase (POLRMT), endogenous, post-mortem human brain (from UniProt O00411 42-1230) |  |  |  |  |  | binding [5]: binds |
| mitochondrial RNA polymerase (POLRMT), endogenous (from UniProt O00411 42-1230) |  |  |  |  | binds | binding [8]: binds |
| polynucleotide-kinase-3'-phosphatase (PNKP), endogenous (from UniProt Q96T60 1-521) |  |  |  |  | binds | binding [8]: binds; binding [9]: binds |
| B1 | binds | binds | binds | binds |  |  |
| B2 |  | binds | binds | binds |  |  |
| B3 |  |  |  |  | binds | binding [10]: binds |
